# According to PMC6887592:
# Chains of the proteins cited; added tags and fusions are not shown. Residues count along the entry.
# UniProt P01033, residues 24-207: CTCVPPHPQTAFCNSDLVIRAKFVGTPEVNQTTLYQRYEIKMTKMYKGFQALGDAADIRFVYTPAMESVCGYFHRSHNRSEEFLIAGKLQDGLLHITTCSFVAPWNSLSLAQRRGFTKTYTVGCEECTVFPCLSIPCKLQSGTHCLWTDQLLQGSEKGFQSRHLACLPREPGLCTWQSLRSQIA
# UniProt P10721, residues 26-976: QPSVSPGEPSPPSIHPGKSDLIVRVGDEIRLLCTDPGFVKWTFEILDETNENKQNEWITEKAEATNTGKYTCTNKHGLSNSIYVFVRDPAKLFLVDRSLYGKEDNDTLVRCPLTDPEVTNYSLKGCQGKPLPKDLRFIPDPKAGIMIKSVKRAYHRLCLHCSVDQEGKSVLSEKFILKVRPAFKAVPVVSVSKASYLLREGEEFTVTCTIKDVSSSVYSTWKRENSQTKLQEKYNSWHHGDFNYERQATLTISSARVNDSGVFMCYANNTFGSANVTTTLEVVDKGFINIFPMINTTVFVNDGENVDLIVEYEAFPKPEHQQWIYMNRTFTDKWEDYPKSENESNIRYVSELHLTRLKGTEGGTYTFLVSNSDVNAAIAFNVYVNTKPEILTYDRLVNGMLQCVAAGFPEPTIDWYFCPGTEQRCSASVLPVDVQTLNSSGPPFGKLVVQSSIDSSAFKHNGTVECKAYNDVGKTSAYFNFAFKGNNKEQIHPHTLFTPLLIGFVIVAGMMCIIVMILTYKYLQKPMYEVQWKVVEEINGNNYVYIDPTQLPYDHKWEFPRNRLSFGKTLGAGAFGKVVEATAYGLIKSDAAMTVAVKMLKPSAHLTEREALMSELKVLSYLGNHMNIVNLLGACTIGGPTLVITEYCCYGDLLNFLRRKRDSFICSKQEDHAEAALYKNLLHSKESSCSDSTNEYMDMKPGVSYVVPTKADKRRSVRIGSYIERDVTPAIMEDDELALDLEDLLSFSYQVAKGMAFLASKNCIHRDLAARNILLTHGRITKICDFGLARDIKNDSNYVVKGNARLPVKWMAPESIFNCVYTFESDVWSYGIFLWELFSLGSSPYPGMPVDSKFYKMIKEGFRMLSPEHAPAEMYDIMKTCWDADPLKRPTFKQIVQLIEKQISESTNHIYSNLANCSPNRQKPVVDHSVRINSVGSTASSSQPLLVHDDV
# No constants are given. Whether binding was seen depends on the method and setting. In cells and extracts the contact can be indirect.
# Target: GFP‐TIMP‐1 (human) (UniProt P01033)
# Experiment: co-IP; DLD‐1 wt and DLD‐1 G13D cells transfected with GFP or GFP‐TIMP‐1 24 h prior to lysis; lysates precipitated with GFP‐TRAPs; western blot for TIMP‐1 and c‐Kit
substance,measurement,value
receptor tyrosine kinase c‐Kit (endogenous in DLD‐1 cells) (from UniProt P10721 26-976),binding,no binding
